From PubChem BioAssay AID2685 (National Center for Advancing Translational Sciences (NCATS), 2010)
This is one part of the list. These are further read-outs of the screen, such as a control signal, another cell line or another target. No call is given for them. Most of these compounds were active or inconclusive in the main read-out, so they are no random draw. The note in brackets gives the kind of curve behind each potency; many fits are weak.

Experiment: qHTS Assay for Lipid Storage Modulators in Drosophila S3 Cells;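 on cell number change: cells counted by Cell Tracker Red CMTPX staining in the red channel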
Conditions: BODIPY lipid droplet fluorescence, 18-24 h; for cell number change: measured here: cell count max response, cells fed with added oleic acid
In short: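 Drosophila S3 cells got compounds at several concentrations plus oleic acid (400 uM solution). Laser-scanning cytometry with 488 nm excitation read lipid droplets at 500-530 nm and cells at 575-640 nm. Percent activity was relative to 20 uM Triacsin C.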

[1] = measured here: lipid fluorescence (Fed channel) AC50, cells fed with added oleic acid
[2] = measured here: cell number channel AC50, cells fed with added oleic acid

| Compound | cell number change | AC50 [1] | AC50 [2] |
| --- | --- | --- | --- |
| COc1ccccc1N1CCN(C(=O)C(C)N(c2ccc(C)c(C)c2)S(C)(=O)=O)CC1 (stereo not drawn) | -0.944% | 20.6 µM [rising, single point] | – |
| COC(=O)c1c(C)n(-c2ccccc2)c2ccc(O)cc12 | -6.32% | 20.6 µM [falling, single point] | – |
| O=c1c([N+](=O)[O-])c(O)c2ccccc2n1Cc1ccccc1 | -0.118% | 9.2 µM [rising, partial curve] | – |
| COc1cc(CNC(=O)C2CCC(=O)N(C3CCCCCC3)C2)cc(OC)c1 (stereo not drawn) | -16.8% | 29.1 µM [falling, single point] | – |
| COc1cc(/C=C/C(=O)NNc2c(F)c(F)cc(F)c2F)ccc1OC(F)F | 95.6% | 0.00517 µM [falling, full curve, poor fit] | 9.2 µM [rising, partial curve] |
| Cc1cccc(S(=O)(=O)NNC(=O)c2sc(C)nc2C)c1 | -0.122% | 0.0206 µM [falling, full curve, poor fit] | – |
| CCc1cc(/C(Cc2ccccn2)=N\Nc2ccccc2)c(O)cc1O | 57.9% | – | 14.6 µM [rising, partial curve] |
| CNC(=O)c1[nH]cnc1C(=O)N[C@@H](Cc1ccccc1)C(=O)OCc1ccccc1 | – | 0.259 µM [falling, partial curve, poor fit] | – |
| COc1ccccc1NS(=O)(=O)c1ccc(NC(=O)c2ccncc2)cc1 | – | – | 6.51 µM [rising, single point] |
| Cc1cc(-n2c(C)cc(C(=O)COc3ccccc3[N+](=O)[O-])c2C)no1 | -19.4% | – | – |
| Cc1cccc(NC(=O)CNC(=O)Cc2ccc3c(c2)OCCO3)c1C | 9.84% | 0.0651 µM [falling, full curve, poor fit] | 0.092 µM [falling, full curve, poor fit] |
| O=C(NCCCN1CCOCC1)c1cc2c([nH]c3ccccc32)c(-c2cccc(Br)c2)n1 | -7.64% | 7.31 µM [falling, partial curve, poor fit] | – |
| CCOC(=O)CSc1nnc(CNc2ccc(Cl)cc2)n1Cc1ccccc1 | -26.2% | 25.9 µM [falling, single point] | – |
| CCOc1ncccc1C(=O)Nc1cc(S(=O)(=O)N2CCOCC2)ccc1N1CCCC1 | 39.7% | 29.1 µM [rising, single point] | – |
| Cc1ccc2cc(CNC(C)C)c(=O)[nH]c2c1 | 38.3% | 29.1 µM [rising, single point] | – |
| Cc1nc(C)c(C(=O)N/N=C/c2ccco2)s1 | – | 0.231 µM [rising, full curve] | 0.291 µM [rising, partial curve] |
| CCN(CC)c1ccc(S(=O)(=O)N2CCOCC2)cc1NS(C)(=O)=O | – | – | 0.58 µM [falling, single point] |
| O=C(CN(C(=O)CCC(=O)Nc1nccs1)c1ccc(F)cc1)NCc1ccc2c(c1)OCO2 | -8.56% | – | – |
| CN1CCSc2ccc(C(=O)Nc3ccc(Cl)cc3)cc21 | -5.4% | – | – |
| COc1ccc(C=O)cc1COc1ccc([N+](=O)[O-])c(C)c1 | 23.5% | – | 0.58 µM [falling, full curve] |
| CC(CN1C(C)CCCC1C)OC(=O)c1cccc(Br)c1 (stereo not drawn) | – | 0.00461 µM [rising, full curve, poor fit] | – |

4 entries from above, field by field.
COC(=O)c1c(C)n(-c2ccccc2)c2ccc(O)cc12
  cell number change: -6.32%; AC50 [1]: 20.6 µM [falling, single point]
COc1ccccc1NS(=O)(=O)c1ccc(NC(=O)c2ccncc2)cc1
  AC50 [2]: 6.51 µM [rising, single point]
Cc1ccc2cc(CNC(C)C)c(=O)[nH]c2c1
  cell number change: 38.3%; AC50 [1]: 29.1 µM [rising, single point]
COc1ccc(C=O)cc1COc1ccc([N+](=O)[O-])c(C)c1
  cell number change: 23.5%; AC50 [2]: 0.58 µM [falling, full curve]

(cont.)

| Compound | cell number change | AC50 [1] | AC50 [2] |
| --- | --- | --- | --- |
| O=c1[nH]c2ccccc2c(=O)n1Cc1ccco1 | 14% | – | – |
| COc1ccc(C(=O)n2c(C)c(CCO)c(=O)n2C)cc1 | 5.13% | 0.146 µM [falling, full curve] | 0.116 µM [falling, full curve] |
| CNC(=S)/N=C(\Nc1ccc(C)cc1)c1ccccc1 | – | 6.51 µM [falling, single point] | – |
| Cc1ccc(OCC(=O)NNC(=O)c2ccc(NC(=O)C3CC3)cc2)c(C)c1 | 24.8% | 7.08 µM [rising, full curve] | – |
| Cc1cc(C)n(-c2c(C)[nH]c3ccccc23)n1 | -11.6% | 0.00517 µM [falling, full curve, poor fit] | 0.517 µM [falling, full curve] |
| O=C(CSc1nnc(CNC(=O)c2c(F)cccc2F)o1)Nc1ccc2c(c1)OCO2 | -17.2% | – | – |
| O=C(CNC1CC1)Nc1cc(C(F)(F)F)ccc1Cl | -52.2% | 6.51 µM [rising, partial curve, poor fit] | 29.1 µM [falling, single point] |
| CC(C)CC(NC(=O)C1CCC(C)CC1)C(=O)N1CCN(c2ccccn2)CC1 (stereo not drawn) | 37.2% | 29.1 µM [rising, single point] | 0.184 µM [rising, partial curve, poor fit] |
| COc1ccc(Cc2nc(C(=O)Nc3ccc(Cl)cc3)cs2)cc1 | -5.34% | – | – |
| O=[N+]([O-])c1cccc(S(=O)(=O)Nc2nc3ccccc3nc2Nc2cccc(S(=O)(=O)N3CCCCC3)c2)c1 | -23.6% | 11.6 µM [falling, partial curve, poor fit] | – |
| Nc1ccc2c3c(cccc13)CC2 | -11.8% | 2.31 µM [rising, full curve, poor fit] | – |
| COc1ccc(NS(=O)(=O)c2ccc(N)c(C(=O)O)c2)cc1 | – | 4.61 µM [falling, full curve] | – |
| CCn1ncc(/C=N\NC(=O)c2ccc3c(c2)c(C)c(C)n3Cc2ccccc2)c1C | – | – | 2.91 µM [rising, partial curve] |
| CCCC(=O)Nc1nc(CC(=O)OCC)cs1 | -45.6% | 32.6 µM [falling, partial curve, poor fit] | – |
| Cc1ccc(-c2ccc(=O)n(CC(=O)Nc3cccc(C(=O)N4CCN(C)CC4)c3)n2)cc1 | 1.51% | 0.517 µM [falling, single point] | – |
| Cc1cccc(/C(N)=N/OC(=O)COc2ccccc2Cl)c1 | -5.47% | 0.082 µM [falling, full curve, poor fit] | – |
| CCN(CC)C(=O)CSC(Nc1cccc(F)c1)=C(C#N)C#N | 23.5% | – | 4.11 µM [rising, full curve, poor fit] |
| Cc1ccc(C)c(-c2nnc(NC(=O)COc3ccccc3)o2)c1 | -8.75% | 3.26 µM [rising, partial curve] | – |
| Cn1c(C(C#N)C(=O)Cc2cccc3ccccc23)nc2ccccc21 (stereo not drawn) | -2.42% | 16.4 µM [rising, single point] | – |
| COCc1nnc(NC(=O)CS(=O)(=O)c2ccc(C)cc2)s1 | 23.5% | – | – |
| COCCCN=C1NN=C(c2cc(C)n(Cc3ccccc3Cl)c2C)CS1 | 28.9% | 1.16 µM [rising, full curve, poor fit] | 2.59 µM [rising, full curve, poor fit] |

| Compound | cell number change | AC50 [1] | AC50 [2] |
| --- | --- | --- | --- |
| Cc1cc(O)ccc1N=Cc1c(C(F)(F)F)[nH][nH]c1=O | -22.3% | – | – |
| COc1ccc(NC(=O)c2ccccc2-c2ccccc2)cc1 | 22.8% | 4.11 µM [rising, single point] | 0.366 µM [rising, full curve, poor fit] |
| CC(C)Oc1ccc(S(=O)(=O)N2CCOCC2)cc1NC(=O)Cc1c(F)cccc1Cl | – | – | 2.91 µM [rising, partial curve] |
| COc1cccc(NC(=S)N2CCC(NC(=O)C3CCCCC3)CC2)c1 | 3.15% | 29.1 µM [falling, single point] | – |
| Cc1cccc(NNC(=O)C(=O)NNc2cccc(C)c2)c1 | 31.8% | 29.1 µM [rising, single point] | – |
| NC(=S)N/N=C/c1ccc(-c2cc(Cl)ccc2Cl)o1 | – | 0.259 µM [rising, full curve] | 0.092 µM [rising, full curve] |
| CCOC(=O)c1ccc(N=c2scc(C)n2CC)cc1 | 79.1% | – | 23.1 µM [rising, single point] |
| CN(C)c1ccc(C(=O)OCc2ccc(Br)cc2)cc1 | 120% | – | 29.1 µM [rising, single point] |
| COc1cc(/C=C/C(=O)NCc2ccccn2)cc(OC)c1OC | 29.9% | 10.3 µM [rising, partial curve, poor fit] | – |
| COC(=O)c1ccc(NS(=O)(=O)N(C)C)cc1 | -18.3% | 5.8 µM [falling, full curve, poor fit] | – |
| O=C(Nc1nc2ccccc2s1)c1cccc(S(=O)(=O)N2CCc3ccccc32)c1 | 7.41% | 6.51 µM [rising, partial curve] | – |
| Cc1ccc(NC(=O)CC(=O)Nc2ccc(C)c(C)c2)cc1C | – | 7.31 µM [rising, partial curve] | – |
| CC1CCCCC1NC(=O)CCNS(=O)(=O)c1ccc(Cl)cc1 (stereo not drawn) | 4.96% | 6.51 µM [rising, single point] | – |
| COc1cccc(CC2(CO)CCCN(Cc3cn[nH]c3-c3ccccc3)C2)c1 (stereo not drawn) | -19.8% | 0.164 µM [falling, full curve] | – |
| CCNC(=S)N/N=C(\C)c1ccc2c(c1)OCCO2 | 4.58% | 3.26 µM [rising, full curve, poor fit] | – |
| CC(OC(=O)CCCN=C1NS(=O)(=O)c2ccccc21)C(=O)Nc1ccccc1[N+](=O)[O-] (stereo not drawn) | -15.8% | 18.4 µM [falling, single point] | – |
| CC1(C)Cc2cccc(OCC(N)=O)c2O1 | 31.9% | 18.4 µM [rising, single point] | 32.6 µM [rising, single point] |
| COCCN(C(=O)COC(=O)C1CC1)c1c(N)n(Cc2ccccc2)c(=O)[nH]c1=O | -11.3% | – | – |
| CCCCN(Cc1cc2ccccc2[nH]c1=O)C(=O)c1ccccn1 | 58.9% | – | 29.1 µM [rising, single point] |
